PubChem BioAssay AID1259297 | Sanger Institute, 2017
Purpose: 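siRNA screen across the kinome seeking drug partners in cells of colorectal cancer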 (primary screen). Cells: human RCM1 colorectal cancer cell line. Reagents: siRNA pool against human genes. Challenge: separate arms: DMSO vehicle, or one anchor drug at a mild dose: BYL719 1 µM, cetuximab 5 µg/ml, trametinib 10 nM. Measurement: 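Replicate-mean well viability as a share of non-targeting pool control, a robust z-score without drug, and synergy scores for BYL719, cetuximab and trametinib arms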. Scale: viability z-score, knock-down alone: higher = more viable cells than non-targeting controls. Hit rule: 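Called essential if knock-down without drug gives a viability robust z-score under -3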. Calls: active = essential when knocked down alone; inactive = no clear loss of viability alone.
In all, the deposit lists 794 reagents; below is a part drawn at random. Over the whole deposit, 13 (1.6%) were called active. 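Calls reflect knock-down without drug only; drug synergy is judged separately, with scores above 0.15 counted as synergy.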 Not all columns of the deposit are shown. The record does not give: the amount of reagent, the time to read-out.

For PANK1, how do the results read?
viability z-score, knock-down alone: 0.9; outcome: inactive

For IPMK, what does the deposit list?
viability z-score, knock-down alone: 0.9; outcome: inactive

For MAP3K20, what was measured?
viability z-score, knock-down alone: 0.9; outcome: inactive

Which result is listed for MAPK13?
viability z-score, knock-down alone: 0.177; outcome: inactive

In a second layout: entries from further up
PANK1
- viability z-score, knock-down alone: 0.9
- outcome: inactive

IPMK
- viability z-score, knock-down alone: 0.9
- outcome: inactive

More records follow:
How did the screen score OBSCN?
viability z-score, knock-down alone: -0.334; outcome: inactive

Which result is listed for PCBP1?
viability z-score, knock-down alone: 0.242; outcome: inactive

What is on record for MAGI2?
viability z-score, knock-down alone: 0.748; outcome: inactive

What did the screen give for HIPK3?
viability z-score, knock-down alone: -0.826; outcome: inactive

How did the screen score MYLK?
viability z-score, knock-down alone: -1.42; outcome: inactive

What did the screen give for IKBKG?
viability z-score, knock-down alone: -0.294; outcome: inactive

For MAP3K2, what does the deposit list?
viability z-score, knock-down alone: 0.00687; outcome: inactive

With PAK5, what does the deposit list?
viability z-score, knock-down alone: 0.223; outcome: inactive
